Measurements from PMC9069051.
These are yes or no findings as the source states them, for the method shown. In cells and extracts the contact can be indirect. These calls come from enrichment with a bait or labelling near it, and not all partners need be listed. Where a sequence is shown, tags or fusion partners need not be part of it.

The chains behind the UniProt entries cited, without tags or fusion partners. Residues count along the entry.
UniProt P49023: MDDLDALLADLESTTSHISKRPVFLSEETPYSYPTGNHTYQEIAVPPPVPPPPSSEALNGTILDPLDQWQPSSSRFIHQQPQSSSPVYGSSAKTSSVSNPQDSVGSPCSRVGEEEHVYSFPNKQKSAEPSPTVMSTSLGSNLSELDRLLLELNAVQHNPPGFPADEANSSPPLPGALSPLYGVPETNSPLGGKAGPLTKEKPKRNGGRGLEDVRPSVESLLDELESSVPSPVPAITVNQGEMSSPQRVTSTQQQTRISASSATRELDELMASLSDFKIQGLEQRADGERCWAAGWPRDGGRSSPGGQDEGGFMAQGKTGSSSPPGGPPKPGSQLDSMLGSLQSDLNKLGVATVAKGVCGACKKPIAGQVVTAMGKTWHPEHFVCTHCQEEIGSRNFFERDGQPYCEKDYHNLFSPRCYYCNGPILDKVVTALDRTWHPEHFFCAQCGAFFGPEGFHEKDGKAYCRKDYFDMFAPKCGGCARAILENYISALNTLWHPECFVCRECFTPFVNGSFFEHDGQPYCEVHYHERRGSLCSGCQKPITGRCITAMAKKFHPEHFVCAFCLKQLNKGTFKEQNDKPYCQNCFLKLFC
UniProt P07355: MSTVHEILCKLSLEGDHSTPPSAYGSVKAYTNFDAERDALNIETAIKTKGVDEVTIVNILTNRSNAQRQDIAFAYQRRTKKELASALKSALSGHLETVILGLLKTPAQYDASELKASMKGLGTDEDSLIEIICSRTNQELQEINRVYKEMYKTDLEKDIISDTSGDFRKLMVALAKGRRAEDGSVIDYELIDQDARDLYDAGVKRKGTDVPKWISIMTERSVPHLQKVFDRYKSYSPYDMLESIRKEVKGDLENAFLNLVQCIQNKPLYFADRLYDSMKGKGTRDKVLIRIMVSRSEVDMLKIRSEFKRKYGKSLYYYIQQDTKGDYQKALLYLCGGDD
UniProt Q06481, residues 32-763: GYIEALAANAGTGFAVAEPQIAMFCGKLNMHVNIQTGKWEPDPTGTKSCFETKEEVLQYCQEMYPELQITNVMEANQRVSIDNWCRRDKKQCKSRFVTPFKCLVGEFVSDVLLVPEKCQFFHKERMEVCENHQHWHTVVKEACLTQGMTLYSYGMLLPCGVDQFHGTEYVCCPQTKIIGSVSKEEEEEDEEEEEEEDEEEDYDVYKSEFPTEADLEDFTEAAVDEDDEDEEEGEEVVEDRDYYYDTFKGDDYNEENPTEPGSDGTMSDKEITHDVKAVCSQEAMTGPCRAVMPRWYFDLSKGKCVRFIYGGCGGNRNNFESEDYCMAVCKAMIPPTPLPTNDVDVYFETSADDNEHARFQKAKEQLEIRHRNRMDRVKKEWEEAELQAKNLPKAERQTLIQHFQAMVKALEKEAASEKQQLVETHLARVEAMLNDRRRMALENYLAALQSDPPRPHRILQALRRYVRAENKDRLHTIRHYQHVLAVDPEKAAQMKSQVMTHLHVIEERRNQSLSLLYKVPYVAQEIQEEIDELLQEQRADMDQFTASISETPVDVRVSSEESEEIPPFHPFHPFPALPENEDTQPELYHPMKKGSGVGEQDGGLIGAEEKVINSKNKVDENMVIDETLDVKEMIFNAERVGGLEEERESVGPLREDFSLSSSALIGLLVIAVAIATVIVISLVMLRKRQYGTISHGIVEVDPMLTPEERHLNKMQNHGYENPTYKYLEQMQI
UniProt P10586, residues 30-1907: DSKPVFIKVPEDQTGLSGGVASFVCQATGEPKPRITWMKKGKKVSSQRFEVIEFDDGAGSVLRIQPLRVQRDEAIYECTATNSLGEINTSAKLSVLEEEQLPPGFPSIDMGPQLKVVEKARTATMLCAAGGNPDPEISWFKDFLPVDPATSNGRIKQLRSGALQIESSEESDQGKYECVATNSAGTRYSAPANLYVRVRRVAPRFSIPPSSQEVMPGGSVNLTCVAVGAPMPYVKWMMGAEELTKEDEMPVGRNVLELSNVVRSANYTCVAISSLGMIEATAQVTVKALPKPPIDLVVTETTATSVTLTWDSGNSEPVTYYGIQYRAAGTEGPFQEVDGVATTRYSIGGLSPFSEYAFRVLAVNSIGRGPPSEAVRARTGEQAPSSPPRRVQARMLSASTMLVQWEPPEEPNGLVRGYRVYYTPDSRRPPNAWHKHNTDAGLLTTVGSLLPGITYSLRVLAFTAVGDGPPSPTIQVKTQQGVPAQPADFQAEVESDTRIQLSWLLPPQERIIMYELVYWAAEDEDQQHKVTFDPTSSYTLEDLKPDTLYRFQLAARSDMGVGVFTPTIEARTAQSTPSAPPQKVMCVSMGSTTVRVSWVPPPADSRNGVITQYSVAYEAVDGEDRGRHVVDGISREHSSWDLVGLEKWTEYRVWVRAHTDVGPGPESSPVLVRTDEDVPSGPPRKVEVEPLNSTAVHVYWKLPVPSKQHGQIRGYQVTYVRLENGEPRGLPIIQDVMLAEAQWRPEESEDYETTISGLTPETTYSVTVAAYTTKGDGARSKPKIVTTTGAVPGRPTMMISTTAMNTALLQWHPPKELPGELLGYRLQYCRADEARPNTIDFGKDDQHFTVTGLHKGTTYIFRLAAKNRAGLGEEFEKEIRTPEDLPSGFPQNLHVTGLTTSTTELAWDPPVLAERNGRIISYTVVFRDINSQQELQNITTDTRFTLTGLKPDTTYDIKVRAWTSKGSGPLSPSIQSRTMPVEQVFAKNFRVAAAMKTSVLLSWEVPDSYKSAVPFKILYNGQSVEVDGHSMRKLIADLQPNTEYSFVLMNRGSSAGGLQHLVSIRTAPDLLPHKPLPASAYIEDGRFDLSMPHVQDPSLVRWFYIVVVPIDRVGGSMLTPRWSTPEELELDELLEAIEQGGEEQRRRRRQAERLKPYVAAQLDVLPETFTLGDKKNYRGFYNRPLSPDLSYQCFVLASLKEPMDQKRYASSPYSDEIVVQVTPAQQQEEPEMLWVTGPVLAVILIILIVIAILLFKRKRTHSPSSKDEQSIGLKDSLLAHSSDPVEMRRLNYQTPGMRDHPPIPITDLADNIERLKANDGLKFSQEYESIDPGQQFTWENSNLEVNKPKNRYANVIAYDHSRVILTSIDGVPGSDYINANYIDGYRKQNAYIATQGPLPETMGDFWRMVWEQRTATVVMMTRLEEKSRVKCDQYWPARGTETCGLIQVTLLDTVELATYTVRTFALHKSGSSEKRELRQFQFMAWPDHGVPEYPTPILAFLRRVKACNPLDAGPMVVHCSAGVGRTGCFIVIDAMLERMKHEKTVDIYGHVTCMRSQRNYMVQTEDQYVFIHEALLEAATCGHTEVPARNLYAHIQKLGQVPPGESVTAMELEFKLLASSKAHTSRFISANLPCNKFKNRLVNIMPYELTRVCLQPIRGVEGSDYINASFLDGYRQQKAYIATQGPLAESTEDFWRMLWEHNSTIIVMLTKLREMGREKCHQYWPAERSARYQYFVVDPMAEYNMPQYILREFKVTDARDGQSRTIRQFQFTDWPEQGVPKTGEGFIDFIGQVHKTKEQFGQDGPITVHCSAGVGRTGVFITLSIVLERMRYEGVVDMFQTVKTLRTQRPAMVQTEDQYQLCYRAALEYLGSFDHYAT
UniProt O95819: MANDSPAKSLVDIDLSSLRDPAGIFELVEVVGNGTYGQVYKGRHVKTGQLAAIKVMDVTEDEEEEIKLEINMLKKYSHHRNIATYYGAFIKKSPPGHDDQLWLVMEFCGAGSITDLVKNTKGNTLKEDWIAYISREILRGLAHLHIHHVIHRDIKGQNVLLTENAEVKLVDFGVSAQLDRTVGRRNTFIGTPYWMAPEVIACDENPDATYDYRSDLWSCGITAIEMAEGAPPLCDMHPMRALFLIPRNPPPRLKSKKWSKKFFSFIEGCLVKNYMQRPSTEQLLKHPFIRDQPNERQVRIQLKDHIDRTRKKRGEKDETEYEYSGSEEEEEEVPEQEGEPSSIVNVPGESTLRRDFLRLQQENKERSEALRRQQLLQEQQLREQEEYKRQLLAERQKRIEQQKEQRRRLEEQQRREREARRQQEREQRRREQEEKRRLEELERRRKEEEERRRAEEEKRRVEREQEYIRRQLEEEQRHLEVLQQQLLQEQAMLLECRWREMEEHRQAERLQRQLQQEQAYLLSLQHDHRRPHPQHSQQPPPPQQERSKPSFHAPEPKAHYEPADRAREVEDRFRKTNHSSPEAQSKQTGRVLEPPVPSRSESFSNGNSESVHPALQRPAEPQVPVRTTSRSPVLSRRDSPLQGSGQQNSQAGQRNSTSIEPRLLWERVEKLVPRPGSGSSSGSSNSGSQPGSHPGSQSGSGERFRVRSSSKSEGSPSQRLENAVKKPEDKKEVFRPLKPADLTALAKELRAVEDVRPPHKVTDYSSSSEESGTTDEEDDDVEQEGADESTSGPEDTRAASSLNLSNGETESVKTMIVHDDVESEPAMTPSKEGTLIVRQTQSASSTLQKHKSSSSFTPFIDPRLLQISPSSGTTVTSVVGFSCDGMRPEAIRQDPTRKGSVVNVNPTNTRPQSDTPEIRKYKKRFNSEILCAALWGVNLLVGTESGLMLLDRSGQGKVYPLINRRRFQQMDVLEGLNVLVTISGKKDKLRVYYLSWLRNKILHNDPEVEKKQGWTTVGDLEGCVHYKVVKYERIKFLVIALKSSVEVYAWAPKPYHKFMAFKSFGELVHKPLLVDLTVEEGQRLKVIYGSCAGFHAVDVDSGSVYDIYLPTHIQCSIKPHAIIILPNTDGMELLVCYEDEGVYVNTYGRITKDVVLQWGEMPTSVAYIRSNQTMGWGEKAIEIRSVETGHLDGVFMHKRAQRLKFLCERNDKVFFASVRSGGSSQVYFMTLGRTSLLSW

B1: GDP-mannose 4,6 dehydratase (enzyme, UniProt O60547 1-372)
chain: MAHAPARCPSARGSGDGEMGKPRNVALITGITGQDGSYLAEFLLEKGYEVHGIVRRSSSFNTGRIEHLYKNPQAHIEGNMKLHYGDLTDSTCLVKIINEVKPTEIYNLGAQSHVKISFDLAEYTADVDGVGTLRLLDAVKTCGLINSVKFYQASTSELYGKVQEIPQKETTPFYPRSPYGAAKLYAYWIVVNFREAYNLFAVNGILFNHESPRRGANFVTRKISRSVAKIYLGQLECFSLGNLDAKRDWGHAKDYVEAMWLMLQNDEPEDFVIATGEVHSVREFVEKSFLHIGKTIVWEGKNENEVGRCKETGKVHVTVDLKYYRPTEVDFLQGDCTKAKQKLNWKPRVAFDELVREMVHADVELMRTNPNA
B2: LIM and SH3 domain protein 1 (protein, UniProt Q14847 1-261)
chain: MNPNCARCGKIVYPTEKVNCLDKFWHKACFHCETCKMTLNMKNYKGYEKKPYCNAHYPKQSFTMVADTPENLRLKQQSELQSQVRYKEEFEKNKGKGFSVVADTPELQRIKKTQDQISNIKYHEEFEKSRMGPSGGEGMEPERRDSQDGSSYRRPLEQQQPHHIPTSAPVYQQPQQQPVAQSYGGYKEPAAPVSIQRSAPGGGGKRYRAVYDYSAADEDEVSFQDGDTIVNVQQIDDGWMYGTVERTGDTGMLPANYVEAI
B3: SHC-transforming protein 1 (protein, UniProt P29353 1-583)
chain: MDLLPPKPKYNPLRNESLSSLEEGASGSTPPEELPSPSASSLGPILPPLPGDDSPTTLCSFFPRMSNLRLANPAGGRPGSKGEPGRAADDGEGIVGAAMPDSGPLPLLQDMNKLSGGGGRRTRVEGGQLGGEEWTRHGSFVNKPTRGWLHPNDKVMGPGVSYLVRYMGCVEVLQSMRALDFNTRTQVTREAISLVCEAVPGAKGATRRRKPCSRPLSSILGRSNLKFAGMPITLTVSTSSLNLMAADCKQIIANHHMQSISFASGGDPDTAEYVAYVAKDPVNQRACHILECPEGLAQDVISTIGQAFELRFKQYLRNPPKLVTPHDRMAGFDGSAWDEEEEEPPDHQYYNDFPGKEPPLGGVVDMRLREGAAPGAARPTAPNAQTPSHLGATLPVGQPVGGDPEVRKQMPPPPPCPGRELFDDPSYVNVQNLDKARQAVGGAGPPNPAINGSAPRDLFDMKPFEDALRVPPPPQSVSMAEQLRGEPWFHGKLSRREAEALLQLNGDFLVRESTTTPGQYVLTGLQSGQPKHLLLVDPEGVVRTKDHRFESVSHLISYHMDNHLPIISAGSELCLQQPVERKL
B4: UBX domain-containing protein 6 (protein, UniProt Q9BZV1 1-441)
chain: MKKFFQEFKADIKFKSAGPGQKLKESVGEKAHKEKPNQPAPRPPRQGPTNEAQMAAAAALARLEQKQSRAWGPTSQDTIRNQVRKELQAEATVSGSPEAPGTNVVSEPREEGSAHLAVPGVYFTCPLTGATLRKDQRDACIKEAILLHFSTDPVAASIMKIYTFNKDQDRVKLGVDTIAKYLDNIHLHPEEEKYRKIKLQNKVFQERINCLEGTHEFFEAIGFQKVLLPAQDQEDPEEFYVLSETTLAQPQSLERHKEQLLAAEPVRAKLDRQRRVFQPSPLASQFELPGDFFNLTAEEIKREQRLRSEAVERLSVLRTKAMREKEEQRGLRKYNYTLLRVRLPDGCLLQGTFYARERLGAVYGFVREALQSDWLPFELLASGGQKLSEDENLALNECGLVPSALLTFSWDMAVLEDIKAAGAEPDSILKPELLSAIEKLL
B5: 2',3'-cyclic-nucleotide 3'-phosphodiesterase (protein, UniProt P09543 1-421)
chain: MNRGFSRKSHTFLPKIFFRKMSSSGAKDKPELQFPFLQDEDTVATLLECKTLFILRGLPGSGKSTLARVIVDKYRDGTKMVSADAYKITPGARGAFSEEYKRLDEDLAAYCRRRDIRILVLDDTNHERERLEQLFEMADQYQYQVVLVEPKTAWRLDCAQLKEKNQWQLSADDLKKLKPGLEKDFLPLYFGWFLTKKSSETLRKAGQVFLEELGNHKAFKKELRQFVPGDEPREKMDLVTYFGKRPPGVLHCTTKFCDYGKAPGAEEYAQQDVLKKSYSKAFTLTISALFVTPKTTGARVELSEQQLQLWPSDVDKLSPTDNLPRGSRAHITLGCAADVEAVQTGLDLLEILRQEKGGSRGEEVGELSRGKLYSLGNGRWMLTLAKNMEVRAIFTGYYGKGKPVPTQGSRKGGALQSCTII
B6: Extended synaptotagmin-1 (protein, UniProt Q9BSJ8 1-1104)
chain: MERSPGEGPSPSPMDQPSAPSDPTDQPPAAHAKPDPGSGGQPAGPGAAGEALAVLTSFGRRLLVLIPVYLAGAVGLSVGFVLFGLALYLGWRRVRDEKERSLRAARQLLDDEEQLTAKTLYMSHRELPAWVSFPDVEKAEWLNKIVAQVWPFLGQYMEKLLAETVAPAVRGSNPHLQTFTFTRVELGEKPLRIIGVKVHPGQRKEQILLDLNISYVGDVQIDVEVKKYFCKAGVKGMQLHGVLRVILEPLIGDLPFVGAVSMFFIRRPTLDINWTGMTNLLDIPGLSSLSDTMIMDSIAAFLVLPNRLLVPLVPDLQDVAQLRSPLPRGIIRIHLLAARGLSSKDKYVKGLIEGKSDPYALVRLGTQTFCSRVIDEELNPQWGETYEVMVHEVPGQEIEVEVFDKDPDKDDFLGRMKLDVGKVLQASVLDDWFPLQGGQGQVHLRLEWLSLLSDAEKLEQVLQWNWGVSSRPDPPSAAILVVYLDRAQDLPLKKGNKEPNPMVQLSIQDVTQESKAVYSTNCPVWEEAFRFFLQDPQSQELDVQVKDDSRALTLGALTLPLARLLTAPELILDQWFQLSSSGPNSRLYMKLVMRILYLDSSEICFPTVPGCPGAWDVDSENPQRGSSVDAPPRPCHTTPDSQFGTEHVLRIHVLEAQDLIAKDRFLGGLVKGKSDPYVKLKLAGRSFRSHVVREDLNPRWNEVFEVIVTSVPGQELEVEVFDKDLDKDDFLGRCKVRLTTVLNSGFLDEWLTLEDVPSGRLHLRLERLTPRPTAAELEEVLQVNSLIQTQKSAELAAALLSIYMERAEDLPLRKGTKHLSPYATLTVGDSSHKTKTISQTSAPVWDESASFLIRKPHTESLELQVRGEGTGVLGSLSLPLSELLVADQLCLDRWFTLSSGQGQVLLRAQLGILVSQHSGVEAHSHSYSHSSSSLSEEPELSGGPPHITSSAPELRQRLTHVDSPLEAPAGPLGQVKLTLWYYSEERKLVSIVHGCRSLRQNGRDPPDPYVSLLLLPDKNRGTKRRTSQKKRTLSPEFNERFEWELPLDEAQRRKLDVSVKSNSSFMSRERELLGKVQLDLAETDLSQGVARWYDLMDNKDKGSS
B7: Extended synaptotagmin-2 (protein, UniProt A0FGR8 1-921)
chain: MTANRDAALSSHRHPGCAQRPRTPTFASSSQRRSAFGFDDGNFPGLGERSHAPGSRLGARRRAKTARGLRGHRQRGAGAGLSRPGSARAPSPPRPGGPENPGGVLSVELPGLLAQLARSFALLLPVYALGYLGLSFSWVLLALALLAWCRRSRGLKALRLCRALALLEDEERVVRLGVRACDLPAWVHFPDTERAEWLNKTVKHMWPFICQFIEKLFRETIEPAVRGANTHLSTFSFTKVDVGQQPLRINGVKVYTENVDKRQIILDLQISFVGNCEIDLEIKRYFCRAGVKSIQIHGTMRVILEPLIGDMPLVGALSIFFLRKPLLEINWTGLTNLLDVPGLNGLSDTIILDIISNYLVLPNRITVPLVSEVQIAQLRFPVPKGVLRIHFIEAQDLQGKDTYLKGLVKGKSDPYGIIRVGNQIFQSRVIKENLSPKWNEVYEALVYEHPGQELEIELFDEDPDKDDFLGSLMIDLIEVEKERLLDEWFTLDEVPKGKLHLRLEWLTLMPNASNLDKVLTDIKADKDQANDGLSSALLILYLDSARNLPSGKKISSNPNPVVQMSVGHKAQESKIRYKTNEPVWEENFTFFIHNPKRQDLEVEVRDEQHQCSLGNLKVPLSQLLTSEDMTVSQRFQLSNSGPNSTIKMKIALRVLHLEKRERPPDHQHSAQVKRPSVSKEGRKTSIKSHMSGSPGPGGSNTAPSTPVIGGSDKPGMEEKAQPPEAGPQGLHDLGRSSSSLLASPGHISVKEPTPSIASDISLPIATQELRQRLRQLENGTTLGQSPLGQIQLTIRHSSQRNKLIVVVHACRNLIAFSEDGSDPYVRMYLLPDKRRSGRRKTHVSKKTLNPVFDQSFDFSVSLPEVQRRTLDVAVKNSGGFLSKDKGLLGKVLVALASEELAKGWTQWYDLTEDGTRPQAMT
B8: FAS-associated factor 2 (protein, UniProt Q96CS3 1-445)
chain: MAAPEERDLTQEQTEKLLQFQDLTGIESMDQCRHTLEQHNWNIEAAVQDRLNEQEGVPSVFNPPPSRPLQVNTADHRIYSYVVSRPQPRGLLGWGYYLIMLPFRFTYYTILDIFRFALRFIRPDPRSRVTDPVGDIVSFMHSFEEKYGRAHPVFYQGTYSQALNDAKRELRFLLVYLHGDDHQDSDEFCRNTLCAPEVISLINTRMLFWACSTNKPEGYRVSQALRENTYPFLAMIMLKDRRMTVVGRLEGLIQPDDLINQLTFIMDANQTYLVSERLEREERNQTQVLRQQQDEAYLASLRADQEKERKKREERERKRRKEEEVQQQKLAEERRRQNLQEEKERKLECLPPEPSPDDPESVKIIFKLPNDSRVERRFHFSQSLTVIHDFLFSLKESPEKFQIEANFPRRVLPCIPSEEWPNPPTLQEAGLSHTEVLFVQDLTDE
B9: Flotillin-1 (protein, UniProt O75955 1-427)
chain: MFFTCGPNEAMVVSGFCRSPPVMVAGGRVFVLPCIQQIQRISLNTLTLNVKSEKVYTRHGVPISVTGIAQVKIQGQNKEMLAAACQMFLGKTEAEIAHIALETLEGHQRAIMAHMTVEEIYKDRQKFSEQVFKVASSDLVNMGISVVSYTLKDIHDDQDYLHSLGKARTAQVQKDARIGEAEAKRDAGIREAKAKQEKVSAQYLSEIEMAKAQRDYELKKAAYDIEVNTRRAQADLAYQLQVAKTKQQIEEQRVQVQVVERAQQVAVQEQEIARREKELEARVRKPAEAERYKLERLAEAEKSQLIMQAEAEAASVRMRGEAEAFAIGARARAEAEQMAKKAEAFQLYQEAAQLDMLLEKLPQVAEEISGPLTSANKITLVSSGSGTMGAAKVTGEVLDILTRLPESVERLTGVSISQVNHKPLRTA

Target: ALK tyrosine kinase receptor (human) (UniProt Q9UM73)
Assay: affinity purification with mass spectrometry; HEK 293 Tet-On 3G cells crosslinked with 0.25% formaldehyde for 10 min, lysed; ALK-FLAG precipitated on anti-FLAG M2 agarose (4°C, 2 h), eluted with Flag peptide; label-free quantitation, Dox+ against Dox- cells, q < 0.05

Molecule	binding
Paxillin (from UniProt P49023 1-591)	binds
Tyrosine-protein phosphatase non-receptor type 11 (from UniProt Q06124 1-593) (enzyme)	binds
Annexin A2 (from UniProt P07355 1-339)	binds
Amyloid-like protein 2 (from UniProt Q06481 32-763)	binds
Receptor-type tyrosine-protein phosphatase F (from UniProt P10586 30-1907)	binds
Mitogen-activated protein kinase kinase kinase kinase 4 (from UniProt O95819 1-1239) (enzyme)	binds
B1	binds
B2	binds
B3	binds
B4	binds
B5	binds
B6	binds
B7	binds
B8	binds
B9	binds
